Measured values taken from patent US20200055951A1 (DONG A UNIVERSITY RESEARCH FOUNDATION FOR INDUSTRY ACADEMY …, published 2020).
Results are given in words; binding and its absence hold for the method and conditions named. Some entries that bind do so weakly or less than the wild type. For part of these data: Tags and fused reporters may be left off the sequences shown.

Assays:
[1] = molecular target: T1, PAUF-His protein (UniProt Q96DA0 17-172, limits assumed); assay: indirect ELISA titration on PAUF-His, anti-human Fc-HRP
T1 construct: not shown: His tag
T1 sequence (looked up): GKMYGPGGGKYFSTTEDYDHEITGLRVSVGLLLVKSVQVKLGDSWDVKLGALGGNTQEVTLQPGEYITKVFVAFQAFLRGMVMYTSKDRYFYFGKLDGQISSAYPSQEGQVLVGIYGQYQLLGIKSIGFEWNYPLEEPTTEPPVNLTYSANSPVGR

[2] = molecular target: T1, PAUF-His protein; assay: indirect ELISA, PAUF-His coated, antibody titrated, anti-human Fc-HRP
[3] = molecular target: T1, PAUF-His protein; assay: indirect ELISA, antigen-coated plate, anti-human kappa light chain-HRP
[4] = molecular target: T1, PAUF-His protein; assay: indirect ELISA by the method of Example 2-2 (PAUF-His and unspecified antigens coated, anti-human kappa light chain-HRP)
[5] = molecular target: T2, pancreatic adenocarcinoma upregulated factor (PAUF) protein (UniProt Q96DA0); assay: indirect ELISA, PAUF-coated plate, HRP-labeled anti-mouse antibody
T2 sequence (looked up): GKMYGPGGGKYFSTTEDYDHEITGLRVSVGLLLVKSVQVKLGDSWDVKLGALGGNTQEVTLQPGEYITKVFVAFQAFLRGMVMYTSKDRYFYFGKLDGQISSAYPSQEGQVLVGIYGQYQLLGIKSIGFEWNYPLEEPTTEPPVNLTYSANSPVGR

[6] = molecular target: T3, PAUF-N-His; assay: indirect ELISA, plates coated with PAUF-N-His and unrelated antigens
T3 sequence: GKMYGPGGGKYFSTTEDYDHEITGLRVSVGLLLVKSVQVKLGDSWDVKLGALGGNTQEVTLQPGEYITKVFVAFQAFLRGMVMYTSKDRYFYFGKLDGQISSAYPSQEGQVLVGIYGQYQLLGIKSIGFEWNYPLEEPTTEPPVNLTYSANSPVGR

[7] = molecular target: T2, pancreatic adenocarcinoma upregulated factor (PAUF) protein; assay: screen of single B lymphocytes on PAUF-coated 96-well plate, HRP-labeled anti-mouse antibody
[8] = molecular target: T2, pancreatic adenocarcinoma upregulated factor (PAUF) protein; assay: competitive ELISA on PAUF-coated plate; competitor biotin-labeled 2H2, streptavidin-HRP
[9] = molecular target: T1, PAUF-His protein; assay: indirect ELISA (affinity), PAUF-His coated, antibody titrated, anti-human Fc-HRP
[10] = molecular target: T1, PAUF-His protein; assay: indirect ELISA, PAUF-His and unspecified antigens coated, antibody at 0, 1 and 5 µg/mL, anti-human kappa light chain-HRP
[11] = molecular target: T1, PAUF-His protein; assay: indirect ELISA, PAUF-His coated, antibody titrated, anti-human Fc-HRP; comparator, weaker than 2H2-VH1/VL1

Measured: binding

B1: hPMAb22 (anti-PAUF protein humanized antibody) (antibody, V domains shown)
VH: QVQLVQSGAEVKKPGASVKVSCKASGFNIKDYYMHWVRQAPGQGLEWMGWIDPENGNTNYAQKFQGRVTMTRDTSISTAYMELSRLRSDDTAVYYCARRAITTATAWFAYWGQGTLVTVSS
VL: DIVMTQSPDSLAVSLGERATINCKSSQSLLNSRTRKNYLAWYQQKPGQPPKLLIYWASTRESGVPDRFSGSGSGTDFTLTISSLQAEDVAVYYCKQSYNLYTFGQGTKVEIK
notes: CDR-grafted humanized antibody with human constant regions; Expressed in HEK293 cells; also called 2H2-VH1/VL1; 2H2-VH1-VL1
binds: [1] | [2] | [3] | [4]

B2: 2H2 (anti-PAUF protein mouse antibody) (antibody, V domains shown)
VH: QVQLKQSGAELVRPGALVKLSCKASGFNIKDYYMHWVKQRPEQGLEWIGWIDPENGNTIYDPKFQGKASITADTSSNTAYLQLSSLTSEDTAVYYCARRAITTATAWFAYWGQGTLVTVSA
VL: DIVMTQSPSSLAVSAGEKVTMSCKSSQSLLNSRTRKNYLAWYQQKPGQSPKLLIYWASTRESGVPDRFTGSGSGTDFTLTISSVQAEDLAVYYCKQSYNLYTFGAGTKLELK
notes: Mouse monoclonal antibody; also called 21-12 [sic]
binds: [5] | [6] | [7] | [8]

B3: 20C5 (anti-PAUF protein mouse antibody) (antibody, V domains shown)
VH: QVQLKESGAELVRPGALVKLSCKASGFNIKDYYMHWVKQRPEQGLEWIGWIDPEHGNTIYDPKFQGKASLTADTSSNTAYLQLSSLTSEDTAVYYCARRGWLPAWFAYWGQGTLVTVSA
VL: DIVMTQSPSSLAVSAGEKVTLSCKSSQSLLNSRTRKNYLAWYQQKPGQSPKLLIYWASTRESGVPDRFTGSGSGTDFTLTISSVQAEDLAVYYCKQSYNLYTFGGGTKLEIK
notes: Mouse monoclonal antibody
binds: [5] | [6] | [7] | [8]

B4: cPMAb205 (chimeric antibody of 20C5) (antibody, V domains shown)
VH: QVQLKESGAELVRPGALVKLSCKASGFNIKDYYMHWVKQRPEQGLEWIGWIDPEHGNTIYDPKFQGKASLTADTSSNTAYLQLSSLTSEDTAVYYCARRGWLPAWFAYWGQGTLVTVSA
VL: DIVMTQSPSSLAVSAGEKVTLSCKSSQSLLNSRTRKNYLAWYQQKPGQSPKLLIYWASTRESGVPDRFTGSGSGTDFTLTISSVQAEDLAVYYCKQSYNLYTFGGGTKLEIK
notes: Mouse variable regions of 20C5 on human heavy and light chain constant regions (kappa light chain implied by the anti-human kappa secondary antibody); Expressed in HEK293 cells
binds: [1] | [3] | [9] | [10]

B5: cPMAb22 (chimeric antibody of 2H2) (antibody, V domains shown)
VH: QVQLKQSGAELVRPGALVKLSCKASGFNIKDYYMHWVKQRPEQGLEWIGWIDPENGNTIYDPKFQGKASITADTSSNTAYLQLSSLTSEDTAVYYCARRAITTATAWFAYWGQGTLVTVSA
VL: DIVMTQSPSSLAVSAGEKVTMSCKSSQSLLNSRTRKNYLAWYQQKPGQSPKLLIYWASTRESGVPDRFTGSGSGTDFTLTISSVQAEDLAVYYCKQSYNLYTFGAGTKLELK
notes: Mouse variable regions of 2H2 on human heavy and light chain constant regions (kappa light chain implied by the anti-human kappa secondary antibody); Expressed in HEK293 cells
binds: [1] | [3] | [9] | [11] | [10]
